Laboratory results published in the supplement of paper PMC10849652.
Some of the results follow.

By UniProt entry, the sequences of proteins in these tests, tags left out. Where a name states a change or a piece, a line headed by the entry shows the natural chain unless it says otherwise.
UniProt Q6WKZ4: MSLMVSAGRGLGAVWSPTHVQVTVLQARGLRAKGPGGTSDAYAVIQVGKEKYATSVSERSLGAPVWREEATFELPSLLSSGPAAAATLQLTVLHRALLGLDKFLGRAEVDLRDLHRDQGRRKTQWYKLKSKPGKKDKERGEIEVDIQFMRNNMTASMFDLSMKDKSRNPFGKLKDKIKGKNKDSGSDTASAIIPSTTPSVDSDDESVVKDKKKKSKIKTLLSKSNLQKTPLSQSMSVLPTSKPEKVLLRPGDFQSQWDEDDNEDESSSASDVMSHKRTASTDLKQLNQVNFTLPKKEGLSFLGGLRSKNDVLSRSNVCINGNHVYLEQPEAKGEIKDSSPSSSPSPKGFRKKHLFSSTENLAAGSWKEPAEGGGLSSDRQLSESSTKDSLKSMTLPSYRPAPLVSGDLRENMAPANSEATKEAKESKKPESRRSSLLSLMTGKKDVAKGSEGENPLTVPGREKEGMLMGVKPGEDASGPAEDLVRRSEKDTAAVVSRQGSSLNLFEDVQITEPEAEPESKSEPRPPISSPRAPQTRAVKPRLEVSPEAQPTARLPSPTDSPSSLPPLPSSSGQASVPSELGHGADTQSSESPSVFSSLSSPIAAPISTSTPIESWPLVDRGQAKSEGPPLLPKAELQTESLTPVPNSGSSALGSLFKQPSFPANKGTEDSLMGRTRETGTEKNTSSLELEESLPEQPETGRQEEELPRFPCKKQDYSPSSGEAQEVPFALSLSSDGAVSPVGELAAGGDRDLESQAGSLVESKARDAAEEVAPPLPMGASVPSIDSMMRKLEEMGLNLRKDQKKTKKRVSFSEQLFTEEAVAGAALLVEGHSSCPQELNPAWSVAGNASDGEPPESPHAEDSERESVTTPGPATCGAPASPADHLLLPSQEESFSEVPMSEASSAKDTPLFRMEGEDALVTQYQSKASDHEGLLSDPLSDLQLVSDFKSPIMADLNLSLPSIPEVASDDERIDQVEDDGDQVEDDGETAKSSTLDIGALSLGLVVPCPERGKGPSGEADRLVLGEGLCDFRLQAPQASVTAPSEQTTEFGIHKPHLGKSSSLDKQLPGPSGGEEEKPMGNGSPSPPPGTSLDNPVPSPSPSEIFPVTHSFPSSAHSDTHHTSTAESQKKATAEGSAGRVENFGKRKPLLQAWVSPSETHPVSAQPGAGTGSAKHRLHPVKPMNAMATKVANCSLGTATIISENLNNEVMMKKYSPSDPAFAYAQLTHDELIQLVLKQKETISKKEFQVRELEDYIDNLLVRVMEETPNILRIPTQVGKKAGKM
UniProt P54727: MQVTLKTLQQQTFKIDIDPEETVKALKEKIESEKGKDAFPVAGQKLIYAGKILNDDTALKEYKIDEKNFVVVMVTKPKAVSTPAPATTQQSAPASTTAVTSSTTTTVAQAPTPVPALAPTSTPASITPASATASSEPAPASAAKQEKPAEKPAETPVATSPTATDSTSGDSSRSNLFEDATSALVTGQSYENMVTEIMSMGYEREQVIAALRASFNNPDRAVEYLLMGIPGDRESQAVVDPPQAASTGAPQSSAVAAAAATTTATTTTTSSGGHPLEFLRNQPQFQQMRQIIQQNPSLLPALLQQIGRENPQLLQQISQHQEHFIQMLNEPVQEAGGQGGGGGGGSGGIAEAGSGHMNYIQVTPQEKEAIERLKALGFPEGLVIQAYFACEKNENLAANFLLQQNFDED
UniProt P61106, whole entry, looked up: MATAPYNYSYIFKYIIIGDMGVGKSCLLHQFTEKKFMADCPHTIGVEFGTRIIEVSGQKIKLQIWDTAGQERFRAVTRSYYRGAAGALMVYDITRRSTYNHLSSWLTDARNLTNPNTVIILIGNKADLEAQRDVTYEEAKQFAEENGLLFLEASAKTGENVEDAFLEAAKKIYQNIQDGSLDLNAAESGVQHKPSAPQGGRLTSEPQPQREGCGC
UniProt Q9H0U4: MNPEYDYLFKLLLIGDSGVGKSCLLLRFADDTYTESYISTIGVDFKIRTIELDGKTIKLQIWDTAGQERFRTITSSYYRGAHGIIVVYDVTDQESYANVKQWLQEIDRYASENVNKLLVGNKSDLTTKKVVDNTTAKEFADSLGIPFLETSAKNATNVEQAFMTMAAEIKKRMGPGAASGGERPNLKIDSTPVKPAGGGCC
UniProt Q92930: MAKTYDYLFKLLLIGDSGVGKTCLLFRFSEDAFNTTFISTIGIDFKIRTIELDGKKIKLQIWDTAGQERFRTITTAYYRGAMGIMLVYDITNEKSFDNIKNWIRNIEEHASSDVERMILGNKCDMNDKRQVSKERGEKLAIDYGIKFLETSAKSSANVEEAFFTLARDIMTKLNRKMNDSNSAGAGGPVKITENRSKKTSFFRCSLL
UniProt P61020: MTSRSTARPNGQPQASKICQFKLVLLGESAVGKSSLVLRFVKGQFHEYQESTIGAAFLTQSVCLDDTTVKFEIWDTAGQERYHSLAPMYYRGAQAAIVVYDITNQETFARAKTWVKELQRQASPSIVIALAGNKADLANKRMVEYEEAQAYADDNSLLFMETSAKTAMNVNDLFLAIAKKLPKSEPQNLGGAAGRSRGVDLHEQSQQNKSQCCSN
UniProt P61006: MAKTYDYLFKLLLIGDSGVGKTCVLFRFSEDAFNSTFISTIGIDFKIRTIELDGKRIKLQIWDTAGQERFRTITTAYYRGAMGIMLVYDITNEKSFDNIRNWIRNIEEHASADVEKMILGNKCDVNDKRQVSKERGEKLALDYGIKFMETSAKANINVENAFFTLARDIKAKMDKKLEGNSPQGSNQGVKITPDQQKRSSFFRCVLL
UniProt Q9P0K7: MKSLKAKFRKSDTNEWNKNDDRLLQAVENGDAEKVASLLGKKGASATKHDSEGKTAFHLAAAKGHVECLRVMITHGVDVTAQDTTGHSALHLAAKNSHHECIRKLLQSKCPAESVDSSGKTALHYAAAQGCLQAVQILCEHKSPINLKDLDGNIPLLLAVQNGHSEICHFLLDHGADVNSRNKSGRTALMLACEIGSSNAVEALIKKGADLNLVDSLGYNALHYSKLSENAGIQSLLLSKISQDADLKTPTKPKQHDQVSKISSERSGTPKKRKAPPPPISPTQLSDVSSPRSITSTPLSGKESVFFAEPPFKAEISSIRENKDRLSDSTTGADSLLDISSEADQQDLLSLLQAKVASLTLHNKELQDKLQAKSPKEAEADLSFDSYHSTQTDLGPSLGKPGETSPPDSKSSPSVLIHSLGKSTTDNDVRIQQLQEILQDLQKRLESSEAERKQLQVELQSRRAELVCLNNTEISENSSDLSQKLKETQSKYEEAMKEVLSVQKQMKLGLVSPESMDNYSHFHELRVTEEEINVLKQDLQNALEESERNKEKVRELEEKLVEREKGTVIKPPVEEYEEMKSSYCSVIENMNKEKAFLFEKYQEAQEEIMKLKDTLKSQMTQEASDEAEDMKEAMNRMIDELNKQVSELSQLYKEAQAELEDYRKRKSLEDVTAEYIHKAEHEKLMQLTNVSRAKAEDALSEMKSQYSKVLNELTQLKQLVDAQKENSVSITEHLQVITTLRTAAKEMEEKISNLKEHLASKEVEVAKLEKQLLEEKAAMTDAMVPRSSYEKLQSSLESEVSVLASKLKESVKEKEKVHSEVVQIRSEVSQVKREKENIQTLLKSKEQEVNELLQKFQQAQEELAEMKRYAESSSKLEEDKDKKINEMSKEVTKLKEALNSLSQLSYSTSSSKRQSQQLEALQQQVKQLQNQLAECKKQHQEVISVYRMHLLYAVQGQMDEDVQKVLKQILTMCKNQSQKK
UniProt P11233: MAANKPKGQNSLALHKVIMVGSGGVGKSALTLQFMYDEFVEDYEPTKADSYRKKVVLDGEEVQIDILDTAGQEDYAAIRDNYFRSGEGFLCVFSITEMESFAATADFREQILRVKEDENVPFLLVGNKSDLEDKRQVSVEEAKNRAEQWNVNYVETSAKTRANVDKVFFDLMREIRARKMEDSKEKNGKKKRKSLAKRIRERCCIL
UniProt P20338: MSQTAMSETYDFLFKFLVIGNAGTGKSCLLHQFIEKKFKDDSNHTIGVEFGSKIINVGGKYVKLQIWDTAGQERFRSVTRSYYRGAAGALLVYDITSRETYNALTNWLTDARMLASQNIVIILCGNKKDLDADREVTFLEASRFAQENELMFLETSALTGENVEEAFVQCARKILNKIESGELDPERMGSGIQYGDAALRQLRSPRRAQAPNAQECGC
UniProt Q9UKM9: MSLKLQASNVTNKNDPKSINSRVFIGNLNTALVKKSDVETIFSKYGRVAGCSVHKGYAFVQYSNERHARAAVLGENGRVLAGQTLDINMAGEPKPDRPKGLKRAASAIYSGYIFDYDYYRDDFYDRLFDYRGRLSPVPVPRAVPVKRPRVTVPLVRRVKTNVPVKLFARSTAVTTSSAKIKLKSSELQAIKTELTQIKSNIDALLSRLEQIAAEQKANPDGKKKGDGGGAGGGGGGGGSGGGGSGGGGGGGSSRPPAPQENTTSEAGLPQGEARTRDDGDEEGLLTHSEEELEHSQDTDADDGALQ
UniProt P61026: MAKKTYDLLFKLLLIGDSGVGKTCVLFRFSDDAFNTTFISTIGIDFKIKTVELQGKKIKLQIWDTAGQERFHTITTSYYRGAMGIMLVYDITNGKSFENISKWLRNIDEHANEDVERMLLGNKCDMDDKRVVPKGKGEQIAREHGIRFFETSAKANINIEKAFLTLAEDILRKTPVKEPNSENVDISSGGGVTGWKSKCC
UniProt Q13905: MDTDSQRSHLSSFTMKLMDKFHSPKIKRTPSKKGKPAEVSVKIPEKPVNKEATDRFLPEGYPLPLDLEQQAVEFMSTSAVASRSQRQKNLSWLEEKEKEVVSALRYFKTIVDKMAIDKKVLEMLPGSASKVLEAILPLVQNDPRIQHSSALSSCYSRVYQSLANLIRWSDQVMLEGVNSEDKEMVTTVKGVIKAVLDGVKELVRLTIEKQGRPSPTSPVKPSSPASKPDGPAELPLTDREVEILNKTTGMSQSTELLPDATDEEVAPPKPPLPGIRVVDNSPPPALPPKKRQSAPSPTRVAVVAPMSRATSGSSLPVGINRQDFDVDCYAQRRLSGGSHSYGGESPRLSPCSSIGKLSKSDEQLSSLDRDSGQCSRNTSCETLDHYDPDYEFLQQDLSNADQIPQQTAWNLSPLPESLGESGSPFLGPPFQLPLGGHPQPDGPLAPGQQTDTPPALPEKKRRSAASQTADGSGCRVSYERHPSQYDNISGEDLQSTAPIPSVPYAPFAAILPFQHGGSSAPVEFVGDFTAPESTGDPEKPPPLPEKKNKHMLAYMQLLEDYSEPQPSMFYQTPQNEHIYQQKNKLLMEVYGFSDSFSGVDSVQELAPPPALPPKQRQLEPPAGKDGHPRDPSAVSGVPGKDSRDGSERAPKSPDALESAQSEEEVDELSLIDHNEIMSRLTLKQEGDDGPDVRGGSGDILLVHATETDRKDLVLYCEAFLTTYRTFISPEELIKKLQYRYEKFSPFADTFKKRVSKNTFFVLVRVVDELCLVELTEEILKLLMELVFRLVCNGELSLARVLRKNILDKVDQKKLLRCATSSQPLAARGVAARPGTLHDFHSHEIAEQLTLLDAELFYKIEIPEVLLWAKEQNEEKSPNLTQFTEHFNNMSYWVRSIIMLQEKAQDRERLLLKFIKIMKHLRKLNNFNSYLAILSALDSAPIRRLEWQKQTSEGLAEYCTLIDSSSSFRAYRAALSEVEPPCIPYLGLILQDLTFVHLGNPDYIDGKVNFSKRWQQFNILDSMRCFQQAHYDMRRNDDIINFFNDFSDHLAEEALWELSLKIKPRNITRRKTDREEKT
UniProt Q2TAL8: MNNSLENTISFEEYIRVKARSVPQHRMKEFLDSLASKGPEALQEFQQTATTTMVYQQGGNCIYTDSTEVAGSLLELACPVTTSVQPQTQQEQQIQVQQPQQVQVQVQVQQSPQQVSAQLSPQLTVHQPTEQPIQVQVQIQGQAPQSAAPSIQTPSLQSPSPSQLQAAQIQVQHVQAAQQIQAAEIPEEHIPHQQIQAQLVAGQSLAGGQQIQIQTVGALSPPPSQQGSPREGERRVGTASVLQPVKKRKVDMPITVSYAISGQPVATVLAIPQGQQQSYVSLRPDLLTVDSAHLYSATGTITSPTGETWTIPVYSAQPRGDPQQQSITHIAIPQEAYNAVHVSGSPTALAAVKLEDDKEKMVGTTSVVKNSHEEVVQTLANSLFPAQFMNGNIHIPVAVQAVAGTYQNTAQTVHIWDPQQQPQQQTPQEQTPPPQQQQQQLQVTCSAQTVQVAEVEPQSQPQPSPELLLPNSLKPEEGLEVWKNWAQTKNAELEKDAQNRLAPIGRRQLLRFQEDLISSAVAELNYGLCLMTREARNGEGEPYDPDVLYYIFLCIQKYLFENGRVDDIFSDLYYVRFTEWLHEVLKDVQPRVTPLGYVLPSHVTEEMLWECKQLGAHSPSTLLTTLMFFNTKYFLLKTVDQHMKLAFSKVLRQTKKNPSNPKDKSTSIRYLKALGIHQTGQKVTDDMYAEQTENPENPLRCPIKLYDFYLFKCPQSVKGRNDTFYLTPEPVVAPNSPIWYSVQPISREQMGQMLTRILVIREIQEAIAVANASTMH

Tests used:
Experiment in all cases: log2 fold change, soluble protein after heating vs DMSO (PISA); higher = thermal stabilisation; K562 lysate, 10 uM; active = over 0.2 and 3.5 SD of the protein, either way, in both replicates (recomputed)
erlotinib = compound: C#Cc1cccc(Nc2ncnc3cc(OCCOC)c(OCCOC)cc23)c1 [erlotinib]
In short: (§1)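 Values give the log-two fold change in thermal stability against solvent controls, from duplicates. Crude K562 extract at 1 mg/mL protein, made by dounce homogenisation in PBS pH 7.4 with 1 mM MgCl2, was treated with 10 μM compound for 30 min. After 3 min heating across 48°C-58°C, aliquots were pooled, adjusted to 0.5% NP-40 at 4°C and centrifuged at 21,000xg for 90 min. The supernatant was measured by TMTpro 16plex LC-MS/MS with channel sums equalised.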

[1] = compound: C/C(=N\NC(=O)C1=CC(=CC=C1)S(=O)(=O)N2CCOCC2)/C3=C(C=CC(=C3)Cl)O
In short: as §1

[2] = compound: C1=CC(=CC=C1C2=NC3=C(N2)C=C(C=C3)C(=O)N)OC4=CC=C(C=C4)Cl
In short: as §1

[3] = compound: C1=CC2=C(C=CC(=C2)/C=C\3/C(=O)NC(=NCC4=CC=CS4)S3)N=C1
In short: as §1

[4] = compound: C1=CC2=NC=CN=C2C=C1/C=C/3\C(=O)NC(=O)S3
In short: as §1

[5] = compound: C1=CC=C(C=C1)C2=NC(=C(N2)C3=CC=NC=C3)C4=CC(=C(C=C4)Cl)O
In short: as §1

[6] = compound: C1=CC=C2C(=C1)C3=NNC4=CC=CC(=C43)C2=O
In short: as §1

[7] = compound: C1CCN(C1)C(=O)NC2=CC=CC(=C2)NC3=NC=C(C(=N3)NCCC4=CN=CN4)Br
In short: as §1

[8] = compound: C1CN(CCC1(CC2=CC=C(C=C2)Cl)N)C3=NC=NC4=C3C=CN4
In short: as §1

IRAK-1-4 Inhibitor I = compound: C1COCCN1CCN2C3=CC=CC=C3N=C2NC(=O)C4=CC(=CC=C4)[N+](=O)[O-] [IRAK-1-4 Inhibitor I]
In short: as §1

Measured: log2 fold change

PYM1 (UniProt Q9BRP8)
inactive: erlotinib -0.04 | [1] -0.002 | [2] 0.003 | [3] 0 | [4] -0.033 | [5] 0.021 | [6] -0.005 | [7] -0.08 | [8] -0.01 | IRAK-1-4 Inhibitor I 0.057

RAB11FIP1 (UniProt Q6WKZ4)
inactive: erlotinib -0.023 | [1] -0.097 | [2] -0.027 | [3] 0.029 | [4] -0.024 | [5] -0.034 | [6] -0.07 | [7] -0.011 | [8] 0.019 | IRAK-1-4 Inhibitor I -0.024

QDPR (UniProt P09417)
inactive: erlotinib 0.001 | [1] 0.022 | [2] 0.012 | [3] 0.141 | [4] -0.021 | [5] 0 | [6] 0.014 | [7] -0.014 | [8] 0.043 | IRAK-1-4 Inhibitor I -0.013

RAD23B (UniProt P54727)
inactive: erlotinib 0.013 | [1] -0.025 | [2] 0.026 | [3] 0.009 | [4] -0.005 | [5] -0.001 | [6] 0.006 | [7] 0.016 | [8] 0.01 | IRAK-1-4 Inhibitor I 0

RAB28 (UniProt P51157)
inactive: erlotinib 0.088 | [1] -0.126 | [2] -0.042 | [3] -0.112 | [4] 0.045 | [5] 0.071 | [6] 0.13 | [7] -0.06 | [8] 0.103 | IRAK-1-4 Inhibitor I 0

RAB6A isoform 4 (UniProt P20340)
inactive: erlotinib -0.001 | [1] -0.15 | [2] 0.064 | [3] 0.06 | [4] 0.008 | [5] -0.023 | [6] -0.073 | [7] 0.003 | [8] -0.002 | IRAK-1-4 Inhibitor I 0.018

RAB23 (UniProt Q9ULC3)
inactive: erlotinib -0.032 | [1] 0.016 | [2] 0.057 | [3] -0.027 | [4] -0.046 | [5] -0.024 | [6] -0.026 | [7] -0.001 | [8] 0.009 | IRAK-1-4 Inhibitor I 0.025

RAB20 (UniProt Q9NX57)
inactive: erlotinib 0.059 | [1] -0.122 | [2] 0.045 | [3] 0.162 | [4] 0.072 | [5] -0.003 | [6] -0.01 | [7] -0.191 | [8] 0.048 | IRAK-1-4 Inhibitor I 0.076

RAB27A (UniProt P51159)
inactive: erlotinib -0.045 | [1] 0.023 | [2] -0.014 | [3] 0.009 | [4] -0.009 | [5] -0.003 | [6] -0.025 | [7] -0.031 | [8] -0.015 | IRAK-1-4 Inhibitor I -0.049

RAD51D (UniProt O75771)
inactive: erlotinib -0.036 | [1] -0.144 | [2] -0.008 | [3] -0.041 | [4] 0.123 | [5] -0.025 | [6] -0.035 | [7] -0.033 | [8] 0.04 | IRAK-1-4 Inhibitor I -0.024

RAB14 (UniProt P61106)
inactive: erlotinib -0.025 | [1] 0.001 | [2] 0 | [3] 0.002 | [4] -0.045 | [5] -0.011 | [6] -0.005 | [7] -0.026 | [8] 0.012 | IRAK-1-4 Inhibitor I 0.024

RAB1B (UniProt Q9H0U4)
inactive: erlotinib -0.009 | [1] -0.005 | [2] 0.011 | [3] 0.019 | [4] -0.002 | [5] 0.005 | [6] -0.008 | [7] 0.014 | [8] 0.003 | IRAK-1-4 Inhibitor I 0.055

R3HCC1L, A0A384DVK4
inactive: erlotinib -0.011 | [1] -0.222 | [2] 0.056 | [3] -0.05 | [4] -0.017 | [5] 0.023 | [6] -0.008 | [7] 0.015 | [8] 0.079 | IRAK-1-4 Inhibitor I 0.021

RAB11FIP4 (UniProt Q86YS3)
inactive: erlotinib 0.071 | [1] 0.052 | [2] -0.067 | [3] -0.048 | [4] -0.131 | [5] -0.042 | [6] -0.082 | [7] -0.006 | [8] 0.004 | IRAK-1-4 Inhibitor I -0.071

RAB8B (UniProt Q92930)
inactive: erlotinib 0.013 | [1] -0.042 | [2] 0.049 | [3] 0.113 | [4] 0.004 | [5] 0.034 | [6] 0.125 | [7] 0 | [8] -0.006 | IRAK-1-4 Inhibitor I 0.035

RAC2 (UniProt P15153)
inactive: erlotinib 0.009 | [1] 0.018 | [2] 0.014 | [3] -0.035 | [4] -0.01 | [5] 0.012 | [6] 0.034 | [7] 0.069 | [8] -0.036 | IRAK-1-4 Inhibitor I 0.024

RAB5B (UniProt P61020)
inactive: erlotinib 0.019 | [1] -0.128 | [2] 0.001 | [3] 0.013 | [4] -0.029 | [5] 0.015 | [6] 0.006 | [7] 0.027 | [8] 0.015 | IRAK-1-4 Inhibitor I 0.004

RAB8A (UniProt P61006)
inactive: erlotinib -0.087 | [1] 0.009 | [2] -0.042 | [3] -0.004 | [4] 0.004 | [5] -0.03 | [6] 0.04 | [7] 0.022 | [8] -0.043 | IRAK-1-4 Inhibitor I -0.035

RAI14 isoform 2 (UniProt Q9P0K7)
inactive: erlotinib 0.015 | [1] 0.006 | [2] -0.007 | [3] 0.004 | [4] 0.001 | [5] 0.021 | [6] 0.02 | [7] 0 | [8] -0.018 | IRAK-1-4 Inhibitor I -0.028

RALA (UniProt P11233)
inactive: erlotinib 0.007 | [1] -0.146 | [2] -0.035 | [3] -0.04 | [4] 0.031 | [5] -0.012 | [6] 0.003 | [7] -0.016 | [8] 0.002 | IRAK-1-4 Inhibitor I 0.04

RAB4A (UniProt P20338)
inactive: erlotinib 0.041 | [1] 0.043 | [2] 0.004 | [3] 0.04 | [4] -0.016 | [5] 0.053 | [6] 0.008 | [7] -0.026 | [8] -0.013 | IRAK-1-4 Inhibitor I -0.03

RALY (UniProt Q9UKM9)
inactive: erlotinib -0.028 | [1] 0.037 | [2] 0.084 | [3] -0.015 | [4] -0.006 | [5] 0.004 | [6] -0.023 | [7] -0.213 | [8] 0.098 | IRAK-1-4 Inhibitor I 0.082

RAB10 (UniProt P61026)
inactive: erlotinib -0.056 | [1] -0.006 | [2] 0.05 | [3] 0.013 | [4] -0.078 | [5] -0.025 | [6] 0.041 | [7] -0.013 | [8] 0.009 | IRAK-1-4 Inhibitor I 0.01

RAPGEF1 isoform 3 (UniProt Q13905)
inactive: erlotinib 0.017 | [1] -0.054 | [2] -0.028 | [3] -0.038 | [4] 0.003 | [5] -0.026 | [6] 0.082 | [7] -0.051 | [8] -0.02 | IRAK-1-4 Inhibitor I 0.02

RANBP9 (UniProt Q96S59)
inactive: erlotinib 0.01 | [1] -0.017 | [2] 0.019 | [3] 0.023 | [4] -0.007 | [5] 0.002 | [6] -0.009 | [7] -0.007 | [8] -0.005 | IRAK-1-4 Inhibitor I 0

RAB3GAP2 (UniProt Q9H2M9)
inactive: erlotinib 0.03 | [1] 0.01 | [2] -0.033 | [3] 0.013 | [4] -0.004 | [5] 0.008 | [6] 0.001 | [7] -0.02 | [8] 0.003 | IRAK-1-4 Inhibitor I -0.037

RALBP1 (UniProt Q15311)
inactive: erlotinib 0 | [1] -0.035 | [2] 0.002 | [3] 0.036 | [4] -0.027 | [5] 0.039 | [6] 0 | [7] -0.073 | [8] -0.03 | IRAK-1-4 Inhibitor I -0.015

QRICH1 (UniProt Q2TAL8)
inactive: erlotinib 0.022 | [1] 0.018 | [2] 0.006 | [3] 0.032 | [4] 0.01 | [5] 0.009 | [6] 0.001 | [7] -0.026 | [8] 0.016 | IRAK-1-4 Inhibitor I -0.029

Quoted at random: 2 entries already listed.
RAB11FIP4 (UniProt Q86YS3)
inactive: erlotinib 0.071 | [1] 0.052 | [2] -0.067 | [3] -0.048 | [4] -0.131 | [5] -0.042 | [6] -0.082 | [7] -0.006 | [8] 0.004 | IRAK-1-4 Inhibitor I -0.071

RAB5B (UniProt P61020)
inactive: erlotinib 0.019 | [1] -0.128 | [2] 0.001 | [3] 0.013 | [4] -0.029 | [5] 0.015 | [6] 0.006 | [7] 0.027 | [8] 0.015 | IRAK-1-4 Inhibitor I 0.004

Following part.

RAB6D (UniProt Q53S08)
inactive: erlotinib 0.027 | [1] -0.071 | [2] 0.054 | [3] -0.025 | [4] -0.048 | [5] -0.019 | [6] 0.044 | [7] -0.038 | [8] 0.157 | IRAK-1-4 Inhibitor I 0.003
